Structures are written as SMILES. The list shows a part of the results. These are further read-outs of the screen, such as a control signal, another cell line or another target. No call is given for them. Most of these compounds were active or inconclusive in the main read-out, so they are no random draw. Words in brackets tell the shape of the fitted curve; partial curves, single points and poor fits give uncertain potencies.

In general, AC50 refers to the concentration giving half of the maximal activity seen. Higher therefore signals weaker potency.

A short description of this assay: qHTS Assay for Lipid Storage Modulators in Drosophila S3 Cells.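 As to cell number change: cells counted by Cell Tracker Red CMTPX staining in the red channel.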 The settings on record: BODIPY lipid droplet fluorescence, 18-24 h; for cell number change: measured here: cell count max response, cells fed with added oleic acid. In outline: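 Drosophila S3 cells loaded with oleic acid (400 uM, as added) and compounds at several concentrations; lipid droplets imaged by 488-nm laser-scanning cytometry, 500–530 nm intensity and object ratio to cell channel. Percent activity normalized to 20 uM Triacsin C.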

Setting [1] is: measured here: lipid fluorescence (Fed channel) AC50, cells fed with added oleic acid.
Where [2] appears, read: measured here: cell number channel AC50, cells fed with added oleic acid.

As for `O=C(NC(=S)Nc1ccccc1N1CCCCC1)c1ccc(F)cc1Cl`, the cell number change turned out to be 17%. Further, the AC50 under setting [1] was 29.1 µM [rising, partial curve, poor fit].

Regarding `NC(=O)CC(NC(=O)Cc1cccc2ccccc12)c1ccc(N2CCCCCC2)c([N+](=O)[O-])c1` (centres undefined), the cell number change is -20.4%. The AC50 under setting [1] was 0.651 µM [falling, partial curve, poor fit]. For the compound `O=C(Cc1c(F)cccc1Cl)N/N=C/c1cccnc1`, the cell number change was 33.8%. Also, the AC50 under setting [1] is 29.1 µM [rising, single point]. On to `CC1(C)Cc2c(C#N)c(NC3CCCCC3)nc(-c3ccco3)c2CO1`, for which the cell number change was 11.3%. Take `Cc1cc(NC(=O)CSc2cn(C)c3ccccc23)no1`: the cell number change is -1.47%. In addition, under setting [1], the AC50 is 10.3 µM [rising, single point]. For the compound `COc1ccc(CCNC(=O)c2ccccc2SC)cc1`, the cell number change is -32.2%. Consider `Cc1ccc(S(=O)(=O)Nc2ccc(Nc3ccccc3)cc2)cc1`, for which the cell number change was -31.2%. Moreover, the AC50 under setting [2] was 23.1 µM [falling, single point]. For the compound `CCOc1ccc2nc(NC(=O)c3ccco3)sc2c1`, the cell number change is -26%. For the same compound, the AC50 under setting [1] was 29.1 µM [falling, single point]. For the compound `COc1ccc(/C=C2\SC(=O)NC2=S)cc1OC`, the cell number change was -0.393%. Moreover, the AC50 under setting [1] is 9.2 µM [falling, single point]. With `Cc1cccc(-n2c(C)cc(/C=N\NC(=O)c3cccs3)c2C)c1`, the cell number change worked out at 5.09%. As for `O=C(COC(=O)c1ccccc1Oc1ccccc1)NC1CC1`, the cell number change was -23%. Regarding `O=C(Nc1ccc(-c2cn3ccccc3n2)cc1)c1ccco1`, the cell number change worked out at 12.9%. Moreover, the AC50 under setting [1] was 1.64 µM [rising, full curve, poor fit]. For the compound `O=C(Nc1nc(-c2cccs2)cs1)c1cccc(S(=O)(=O)N2CCCCCC2)c1`, the cell number change is -46.8%. Also, under setting [2], the concentration at half-maximal activity (AC50) was 7.31 µM [falling, full curve, poor fit]. Regarding `COn1c(=O)c(-c2cccc(Br)c2)[n+]([O-])c2ccccc21`, the cell number change is -3.41%. Regarding `COc1ccc(C(=O)/C=C/Nc2ccc([N+](=O)[O-])cc2C)c(OC)c1`, the cell number change amounted to 47.5%. Besides, the AC50 under setting [2] was 2.31 µM [rising, full curve]. Also, the AC50 under setting [1] was 3.66 µM [rising, partial curve]. Regarding `OC(CN1C2=NCCN2c2ccccc21)c1ccccc1` (centres undefined), the cell number change is 20.8%. Moreover, under setting [1], the AC50 was 0.82 µM [falling, single point]. Regarding `CCC(c1nnnn1CCOC)N(Cc1ccc(C)cc1)Cc1cc2cc(OC)ccc2[nH]c1=O` (centres undefined), the cell number change came to 120%. Besides, the AC50 under setting [2] is 0.58 µM [rising, single point]. Turning to `O=C(N/N=C\c1ccoc1)c1ccco1`, the cell number change turned out to be 6.27%. The AC50 under setting [1] was 0.206 µM [rising, full curve, poor fit]. With `O=[N+]([O-])c1cccc(S(=O)(=O)NCCc2cn3ccccc3n2)c1`, the cell number change worked out at 12.5%. For the same compound, the AC50 under setting [1] is 6.51 µM [rising, single point].

These data come from PubChem BioAssay AID2685 (National Center for Advancing Translational Sciences (NCATS), 2010).
